From article PMC9899276

Target: STING-TurboID (human), Q86WV6
Experiment: proximity labelling; 293T stably expressing STING-TurboID (WT or 5KR), cGAMP in permeabilisation buffer for the indicated times (up to 6 h), 500 µM biotin 30 min prior to harvest; RIPA lysate, streptavidin magnetic beads, immunoblot of the labelled proteins; also done with 0.5 µM MLN7243 and in UBE2N KO cells
Conditions: remark: other sources report otherwise

binding: binds
B1: VPS37A, Q8NEZ2 1-397 (protein)
chain: MSWLFPLTKSASSSAAGSPGGLTSLQQQKQRLIESLRNSHSSIAEIQKDVEYRLPFTINNLTININILLPPQFPQEKPVISVYPPIRHHLMDKQGVYVTSPLVNNFTMHSDLGKIIQSLLDEFWKNPPVLAPTSTAFPYLYSNPSGMSPYASQGFPFLPPYPPQEANRSITSLSVADTVSSSTTSHTTAKPAAPSFGVLSNLPLPIPTVDASIPTSQNGFGYKMPDVPDAFPELSELSVSQLTDMNEQEEVLLEQFLTLPQLKQIITDKDDLVKSIEELARKNLLLEPSLEAKRQTVLDKYELLTQMKSTFEKKMQRQHELSESCSASALQARLKVAAHEAEEESDNIAEDFLEGKMEIDDFLSSFMEKRTICHCRRAKEEKLQQAIAMHSQFHAPL

No constants are given. Whether binding was seen depends on the method and setting. In cells and extracts the contact can be indirect. Here binding means that the protein was enriched with, or labelled near, the bait; the list need not be complete.
